# Assay results from PubChem BioAssay AID540276 (National Center for Advancing Translational Sciences (NCATS), 2011).
# Several values for one entry are separate records, joined by “and”; a condition that tells them apart may be missing. Identical values can stand only once. About 5,400 (1.8%) of roughly 300,000 compounds were called active. Inconclusive means that the source gave no clear call. Such entries were picked first, then a sample of the others. The call rests on the fitted dose curve; tested in HEK293 cells. Potencies beside an inconclusive call are fits to weak or partial responses and may not hold up.
# Test: qHTS for inhibitors of binding or entry into cells for Marburg Virus
# Settings: Marburg virus pseudotyped entry inhibition, cell reporter; activity change, negative = inhibition: at 37.8 µM (top of the series) unless noted
# On the % scale 0 is the no-effect control and ±100 the full control effect; potency means the concentration at half of the fitted maximal effect.
SMILES,Potency,"activity change, negative = inhibition"
CCc1ccc(OC(C)C(=O)N2CCC(c3nc4ccccc4o3)CC2)cc1 (stereo not drawn),"inconclusive: 35.5 µM [activator, single point]",–
CC(C)OC(=O)c1ccc(NC(=O)c2ccccc2)cc1,"inconclusive: 3.55 µM [activator, partial curve, poor fit]",–
CCOc1ccc(C(=O)N2CCn3c2nc2ccccc23)cc1,"inconclusive: 5.62 µM [activator, full curve, poor fit]",–
COc1ccc(N2CCN(C(=O)NC(=O)c3ccccc3)CC2)cc1,–,inactive: 19.4% [at 46.1 µM]
CC(=O)N1CCCc2cc(S(=O)(=O)N(C)Cc3ccccc3)ccc21,–,inactive: -4.55% [at 46.1 µM]
Cc1ccc(C)c(-n2c(-c3ccc(Br)cc3)csc2=NC(=O)c2ccccc2F)c1,active: 1.26 µM,–
c1ccc(CSc2nnc(Cc3ccccn3)o2)cc1,–,inactive: 3.32%
CCOC(=O)c1cnc2c(C(=O)OC)cccc2c1NCc1cccnc1,–,inactive: -15%
C=CCn1c(C)cc(C(=O)Cn2ncc(Cl)c(Cl)c2=O)c1C,"inconclusive: 22.4 µM [inhibitor, single point]",–
O=C(O)c1ccc(CN2CCCCC2)o1,–,inactive: 0.67%
Cn1c(=O)cc(SCC(=O)N2CCCC2)c2ccccc21,–,inactive: -5.01%
CC1=C/C(=N\NC(=O)c2ccc(O)cc2)CC1,"inconclusive: 6.31 µM [activator, partial curve]",–
CCN(c1ccccc1)S(=O)(=O)c1ccc(Cl)c(NC(=O)COC(=O)c2ccc(Cl)c(N)c2)c1,"inconclusive: 0.282 µM [inhibitor, partial curve, poor fit]",–
CCOC(=O)C1=C(c2ccccc2)NC(=S)NC1c1ccc(C)c([N+](=O)[O-])c1 (stereo not drawn),"inconclusive: 14.1 µM [inhibitor, single point]",–
C=CCN1N=C(c2ccc(Cl)s2)CSC1=O,"inconclusive: 0.0058 µM [inhibitor, full curve, poor fit]",–
COc1ccc2c(CC(=O)OCC(=O)Nc3cc(C)c(C)cc3[N+](=O)[O-])coc2c1,"inconclusive: 0.316 µM [inhibitor, partial curve, poor fit]",–
CC1(C)CC(=O)C/C(=N/NC(=O)COc2ccc(Cl)cc2Cl)C1,"inconclusive: 14.1 µM [inhibitor, single point]",–
COc1ccc(-c2nc(C3CCCCC3)no2)cc1OC,"inconclusive: 20.6 µM [activator, partial curve]",–
CC(C)c1ccc(Cn2c(COc3ccccc3)nc3ccccc32)cc1,–,inactive: -19.3% [at 46.1 µM]
ClCCN(CCCl)c1ccc(C=NNc2ncccn2)cc1,"inconclusive: 0.891 µM [inhibitor, full curve, poor fit]",–
O=CN1CCN(C(C(=O)NC2CCCC2)c2ccc(Cl)cc2)CC1 (stereo not drawn),"inconclusive: 29.1 µM [activator, single point]",–
COC(=O)c1ccccc1NC(=O)C1CC(=O)N(c2ccc(OC)cc2)C1 (stereo not drawn),"inconclusive: 3.16 µM [inhibitor, single point]",–
COC(=O)CCSc1nc(N2CCOCC2)c2c(c1C#N)CC(C)(C)OC2,"inconclusive: 7.94 µM [activator, partial curve]",–

SMILES,Potency,"activity change, negative = inhibition"
CCN1CCN(c2ccc(N3CCN(S(=O)(=O)c4cc([N+](=O)[O-])ccc4C)CC3)nn2)CC1,–,inactive: -23.2%
COc1ccc(-c2nc(SCC(=O)NC3CCCC3)c(-c3ccc(F)cc3)[nH]2)cc1,"inconclusive: 10 µM [inhibitor, partial curve, poor fit]",–
O=C(CNc1cccc(S(=O)(=O)N2CCCC2)c1)Nc1cccc(C(F)(F)F)c1,"inconclusive: 5.01 µM [inhibitor, full curve]",–
COc1ccc(CCNC(=O)c2cccs2)cc1,"inconclusive: 11.2 µM [activator, partial curve, poor fit]",–
O=C(c1ccc(Cl)cc1)C1CCCN(Cc2ccc3c(c2)OCCO3)C1 (stereo not drawn),"inconclusive: 35.5 µM [inhibitor, single point]",–
O=C(/C(=C/c1ccc(Cl)cc1)c1nc2ccccc2[nH]1)c1ccccc1,"inconclusive: 3.26 µM [inhibitor, full curve, poor fit]",–
Cc1cc(C)cc(OCC(=O)Nc2ccc(S(=O)(=O)Nc3ccccn3)cc2)c1,"inconclusive: 15.8 µM [activator, single point]",–
Cn1nccc1C(=O)NC1CCCc2c1cnn2-c1ccc(F)cc1F (stereo not drawn),"inconclusive: 0.891 µM [inhibitor, full curve]",–
CCOC(=O)C1(Cc2ccccc2)CCN(Cc2nccn2CC)CC1,"inconclusive: 7.08 µM [inhibitor, full curve, poor fit]",–
COc1ccc(CCNC(=O)CCCCCN2C(=O)c3ccccc3C2=O)cc1OC,"inconclusive: 14.1 µM [inhibitor, single point]",–
Cc1ccc(NC(=O)c2n[nH]c(=O)c3ccccc23)cc1S(=O)(=O)N1CCOCC1,"inconclusive: 25.1 µM [inhibitor, single point]",–
CN(C)S(=O)(=O)N1CCC(Oc2ccc(C(=O)NC3CCCCC3)cc2)CC1,–,inactive: 20.1% [at 46.1 µM]
CCOC(=O)c1cc(CC)sc1N1C(=O)CC(Sc2ccccc2C(=O)O)C1=O (stereo not drawn),–,inactive: 12.3% [at 46.1 µM]
OCCNc1nc2ccccc2n1-c1ncnc2sc3c(c12)CCC3,active: 11.2 µM,–
O=C(C=C=Nc1ccccc1)C(=O)N=C=Cc1ccccc1,"inconclusive: 15.8 µM [inhibitor, partial curve, poor fit]",–
COC(=O)C1(Cc2ccc3c(c2)CCC3)Cc2ccc3c(c2C1=O)CCC3 (stereo not drawn),"inconclusive: 17.8 µM [inhibitor, single point]",–
CCOc1ccc(C(c2nnnn2Cc2ccccc2)N2CCN(C(=O)c3ccco3)CC2)cc1 (stereo not drawn),inactive,–
COc1ccc(CCNC(=O)c2ccccc2)cc1,–,inactive: 4.25%
COc1ccccc1C(=O)NCCC(=O)N(C)Cc1ccc(C)o1,–,inactive: -0.233% [at 46.1 µM]
Cc1ccc(CN(C)c2ccc(S(=O)(=O)N3CCCC3)cn2)cc1,"inconclusive: 12.6 µM [inhibitor, single point]",–
COc1ccc(Br)cc1-c1nc2c(c(=O)[nH]c(=O)n2Cc2ccccc2)n1C,–,inactive: -14.9% [at 46.1 µM]
CCN(CCO)C(=O)c1ccc2nc(Cc3cccc(Cl)c3)oc2c1,–,inactive: -10.6% [at 46.1 µM]
Cc1ccc(N2CN(Cc3ccco3)CNC2=S)cc1,"inconclusive: 0.631 µM [inhibitor, full curve, poor fit]",–

SMILES,Potency,"activity change, negative = inhibition"
CCn1c2ccccc2c2cc(NC(=O)COc3ccccc3OC)ccc21,"inconclusive: 1.12 µM [inhibitor, partial curve, poor fit]",–
Cc1c(C#N)c2ccccc2n1CC(=O)N1CCCc2ccccc21,"inconclusive: 12.6 µM [inhibitor, partial curve, poor fit]",–
Cc1ccc(NC(=O)Cc2cccs2)cc1Cl,–,inactive: 4.43%
COc1ccccc1C(=O)Nc1ccc2c(C)cc(=O)oc2c1,"inconclusive: 1.26 µM [activator, single point]",–
Cc1cnc(C(=O)OCC(=O)NC(=O)NC(C)C)cn1,"inconclusive: 22.4 µM [activator, single point]",–
CC(C)c1ccc(NC(=O)NC2CCCCC2)cc1,"inconclusive: 0.73 µM [activator, full curve, poor fit]",–
CC1CCN(C(=O)c2ccc([N+](=O)[O-])o2)CC1,–,inactive: 1.4% [at 46.1 µM]
ClCCN(CCCl)c1ccc(C2=NCCc3ccccc32)cc1,"inconclusive: 35.5 µM [inhibitor, single point]",–
CCOC(=O)/C=C/c1cnn(-c2ccccc2)c1,"inconclusive: 2.24 µM [activator, partial curve, poor fit]",–
Cn1nc(C(=O)N2CCCC2)c2ccccc2c1=O,"inconclusive: 6.51 µM [activator, single point]",–
COc1ccccc1NC(=O)c1oc2ccccc2c1NC(=O)c1cccc(OC)c1OC,–,inactive: 1.12% [at 46.1 µM]
O=c1c2ccccc2sn1-c1cc(S(=O)(=O)N2CCOCC2)ccc1N1CCOCC1,"inactive and inconclusive: 6.51 µM [inhibitor, partial curve]",–
COc1cc(C2c3cc4c(cc3OC(N3CCCCC3)C2C)OCO4)cc(OC)c1O (stereo not drawn),–,inactive: -24.5%
CCOCCCNC(=O)C(NC(=O)c1ccccc1O)c1ccc(C)cc1 (stereo not drawn),–,inconclusive: 21.2% [activator] [at 46.1 µM]
COc1ccc(C(=O)NC(=S)NNC(=O)c2ccc(NC(=O)C(C)C)cc2)cc1,"inconclusive: 20 µM [inhibitor, partial curve, poor fit]",–
COc1ccccc1CNC(=O)N/C=C/c1ccc(Cl)cc1,"inconclusive: 7.08 µM [inhibitor, full curve, poor fit]",–
Fc1ccccc1Cc1cn2cc(-c3ccc(Cl)cc3)nc2s1,"inconclusive: 0.355 µM [activator, full curve, poor fit]",–
CCOC(=O)c1cc2[nH]c3ccccc3c2[n+](-c2ccc([N+](=O)[O-])cc2)c1N,"inconclusive: 35.5 µM [inhibitor, single point]",–
CC1(C)Cc2c(sc(NC(=O)COc3ccc(Cl)cc3)c2C#N)C(C)(C)N1,"inconclusive: 8.91 µM [inhibitor, partial curve, poor fit]",–
COC(=O)C(C(=O)OC)[C@@H]1O[C@@]23COCC[C@]2(C)[C@@H]3c2ccccc21,"inconclusive: 0.0299 µM [activator, partial curve, poor fit]",–
COc1ccc(CNC(=O)c2nc(SCc3ccccc3F)ncc2Cl)cc1,"inconclusive: 35.5 µM [inhibitor, single point]",–
CSc1cccc(NC(=S)N(CCC(C)C)C2CCN(C(C)C)CC2)c1,"inconclusive: 11.2 µM [inhibitor, partial curve, poor fit]",–
